Over roughly 33,000 sequences, “E-score (-0.5 to 0.5)” has its median near -0.016; the highest 2% begin near 0.3. Some of the results follow.
target: T1, Yer184c (UniProt P39961); assay: PBM E-score (8-mer binding enrichment) (E-score (-0.5 to 0.5)); higher = stronger / more preferred TF binding; conditions: protein concentration: 100 nM; construct: GST-full length
T1 sequence: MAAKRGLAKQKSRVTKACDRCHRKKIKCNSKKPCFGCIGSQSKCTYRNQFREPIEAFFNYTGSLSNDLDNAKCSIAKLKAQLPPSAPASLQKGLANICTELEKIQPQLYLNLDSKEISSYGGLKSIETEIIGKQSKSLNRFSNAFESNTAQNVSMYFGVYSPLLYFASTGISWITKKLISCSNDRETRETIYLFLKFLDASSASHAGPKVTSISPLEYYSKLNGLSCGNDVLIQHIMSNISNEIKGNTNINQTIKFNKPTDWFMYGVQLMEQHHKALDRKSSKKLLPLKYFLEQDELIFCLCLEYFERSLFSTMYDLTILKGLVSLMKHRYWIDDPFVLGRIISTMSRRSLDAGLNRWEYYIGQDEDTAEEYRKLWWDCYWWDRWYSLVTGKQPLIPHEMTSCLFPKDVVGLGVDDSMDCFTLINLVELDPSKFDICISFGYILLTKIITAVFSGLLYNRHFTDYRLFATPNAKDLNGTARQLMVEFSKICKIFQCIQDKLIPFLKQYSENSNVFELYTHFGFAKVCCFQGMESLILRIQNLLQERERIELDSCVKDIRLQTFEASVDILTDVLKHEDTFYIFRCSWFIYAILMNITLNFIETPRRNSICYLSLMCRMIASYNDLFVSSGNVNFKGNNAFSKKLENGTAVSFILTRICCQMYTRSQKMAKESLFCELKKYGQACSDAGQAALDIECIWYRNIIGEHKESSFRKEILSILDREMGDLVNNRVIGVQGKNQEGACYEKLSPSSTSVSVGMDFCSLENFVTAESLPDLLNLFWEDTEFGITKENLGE
Procedure, shortened: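 Full-length yeast transcription factors or their DNA-binding domains, GST-tagged and expressed with PURExpress, were applied at about 100-200 nM to universal all-10-mer Agilent arrays. These arrays had been made double-stranded by primer extension on fresh or once-stripped slides. Detection used fluorescent anti-GST, normalisation used masliner, and E-scores for ungapped eight-base words pooled with reverse complements came from the Universal PBM Analysis Suite.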

Going from CTCCTGGC to GACTGGAA, the “PBM E-score” value rises from -0.118 to -0.0358.

Compared with CAGTGGGA, CATCAAAC is higher in “PBM E-score” value: -0.199 for the first, -0.0426 for the second.

Going from GGGTTGGA to ACGCCCAA, the “PBM E-score” value falls from -0.00521 to -0.14.

Compared with CGGCTGGA, AGTAATAC is higher in “PBM E-score” value: 0.0802 for the first, 0.106 for the second.

Going from AAAGTAAC to ACCTCTAG, the “PBM E-score” value falls from 0.0507 to -0.176.

Compared with AGTGAATA, GGCGCAAC is lower in “PBM E-score” value: 0.0757 for the first, 0.0406 for the second.

Going from AGGCGCCC to CGACAGTA, the “PBM E-score” value rises from -0.22 to -0.109.

Going from AACACACC to ATATTGCC, the “PBM E-score” value falls from 0.105 to -0.0158.

First: ACAAAGTA
Second: AGTACATC
The “PBM E-score” value of the first is higher: 0.229 for the first, -0.0579 for the second.

Going from CATTGCGC to GGCACCAC, the “PBM E-score” value rises from -0.0922 to -0.0332.

Compared with AATTCCCT, TAAGTATA is higher in “PBM E-score” value: -0.0636 for the first, 0.193 for the second.

Going from TCCCCAGA to ATAGACCA, the “PBM E-score” value rises from -0.303 to -0.0848.

Going from ATCACCGA to GCGAGTAA, the “PBM E-score” value rises from 0.21 to 0.216.

Going from GTGCACTA to TCAGAACA, the “PBM E-score” value falls from 0.139 to 0.106.

Going from GCTGTCAA to AAGGAAGG, the “PBM E-score” value falls from 0.0182 to -0.0761.

Going from CACTAGTC to CCCACGGG, the “PBM E-score” value rises from -0.184 to -0.0754.

Compared with ACCAGTGC, CGGTAAGA is higher in “PBM E-score” value: -0.249 for the first, 0.256 for the second.

First: AAGTGAGT
Second: CAAGCTCC
The “PBM E-score” value of the first is higher: -0.1 for the first, -0.144 for the second.

Compared with AACTGTGC, CTTGGTCA is higher in “PBM E-score” value: -0.148 for the first, 0.053 for the second.

Compared with GCACGCTA, CGCTCATC is higher in “PBM E-score” value: -0.112 for the first, 0.0551 for the second.

First: GCGGAAGA
Second: CAGATCGC
The “PBM E-score” value of the first is higher: 0.142 for the first, 0.0154 for the second.

First: AGCGGGAG
Second: ATATCCCC
The “PBM E-score” value of the first is higher: -0.192 for the first, -0.196 for the second.

Going from GGGTCACC to AGGGCTAC, the “PBM E-score” value falls from -0.234 to -0.306.

First: AGCAGCTC
Second: ATGGGTCC
The “PBM E-score” value of the first is lower: -0.16 for the first, -0.0706 for the second.

First: CGCGTGTC
Second: TATGGGCA
The “PBM E-score” value of the first is higher: 0.202 for the first, -0.111 for the second.

Compared with TGTTTAAA, GCGGCCCC is lower in “PBM E-score” value: 0.0737 for the first, -0.281 for the second.

First: AGGTCAGG
Second: ATCTGGAC
The “PBM E-score” value of the first is lower: -0.256 for the first, -0.0747 for the second.

First: GGATTTCA
Second: ATTTTAGC
The “PBM E-score” value of the first is higher: 0.201 for the first, 0.0506 for the second.

First: ATTAGGTG
Second: ACAGCTAA
The “PBM E-score” value of the first is higher: 0.0154 for the first, -0.0181 for the second.

Going from ATCATTAG to GAACAAGC, the “PBM E-score” value falls from 0.037 to -0.00628.

First: GAAAAGCC
Second: ATCATACA
The “PBM E-score” value of the first is lower: 0.0253 for the first, 0.245 for the second.

Compared with ACCTGGTA, AGTTGATA is higher in “PBM E-score” value: -0.301 for the first, 0.173 for the second.

First: AGTCACTC
Second: GACTCACA
The “PBM E-score” value of the first is higher: -0.0449 for the first, -0.065 for the second.

Going from CTGAACAG to ACGCGAAA, the “PBM E-score” value falls from 0.108 to -0.006.

First: CTCGATCA
Second: ACAGGGCA
The “PBM E-score” value of the first is higher: 0.0427 for the first, -0.147 for the second.

Compared with GTCTTATA, GGTATTCA is higher in “PBM E-score” value: 0.00725 for the first, 0.136 for the second.

First: CACCTGTC
Second: AGCACTCC
The “PBM E-score” value of the first is lower: -0.121 for the first, 0.0622 for the second.

First: CAGATAAG
Second: CTGGAACA
The “PBM E-score” value of the first is lower: 0.0249 for the first, 0.122 for the second.

First: GCGCTGCA
Second: GTCCCGCA
The “PBM E-score” value of the first is lower: -0.143 for the first, -0.0234 for the second.

Compared with CCCGCTGC, CGCGCTGC is lower in “PBM E-score” value: -0.167 for the first, -0.177 for the second.

Compared with AGCAAACC, ACGGTCCC is lower in “PBM E-score” value: 0.0871 for the first, -0.205 for the second.

Going from CGGTCACG to GCCGGCTA, the “PBM E-score” value rises from -0.0759 to 0.266.

Going from ATCTAGTC to AAAACTGT, the “PBM E-score” value rises from -0.0233 to 0.0544.

Compared with AAACTTAC, CGTCCTCC is lower in “PBM E-score” value: -0.0665 for the first, -0.111 for the second.

Going from AGCTAAAC to CGTTATGA, the “PBM E-score” value falls from -0.00263 to -0.146.

First: AGAGTCGA
Second: CTGACGAA
The “PBM E-score” value of the first is lower: -0.191 for the first, 0.0607 for the second.

Compared with ATGGGATC, CCCCACCA is lower in “PBM E-score” value: -0.0683 for the first, -0.113 for the second.

Going from GACGCTAA to GCACTGCA, the “PBM E-score” value rises from -0.153 to -0.0785.

Going from GACAATTA to ACGAGGCG, the “PBM E-score” value falls from 0.135 to 0.0616.

First: CCGAGGAG
Second: CGGAGTAG
The “PBM E-score” value of the first is lower: 0.0862 for the first, 0.252 for the second.

Compared with AGATAGCT, AGTGTTTC is lower in “PBM E-score” value: -0.00764 for the first, -0.0499 for the second.

Compared with TGCTCACA, AGTTGAAC is higher in “PBM E-score” value: -0.216 for the first, -0.0657 for the second.

First: AAGAATAC
Second: ATACTCGG
The “PBM E-score” value of the first is higher: 0.128 for the first, 0.107 for the second.

First: GCAGGCGC
Second: ATTCGAAC
The “PBM E-score” value of the first is lower: 0.0213 for the first, 0.144 for the second.

Compared with GCGCACGC, TGGATGAA is higher in “PBM E-score” value: -0.137 for the first, -0.0386 for the second.

Going from CGCCCCCG to ACTTACGC, the “PBM E-score” value rises from -0.103 to -0.0496.

First: GTCGGGGA
Second: GACTCTGA
The “PBM E-score” value of the first is lower: -0.0792 for the first, -0.0728 for the second.

First: AAGGCCCC
Second: ACTGTGTC
The “PBM E-score” value of the first is lower: -0.155 for the first, 0.0251 for the second.

Compared with ACGAACAA, AATTAGGG is lower in “PBM E-score” value: 0.275 for the first, -0.187 for the second.

Compared with AGTGTAAC, GAAGAATA is lower in “PBM E-score” value: -0.0111 for the first, -0.0112 for the second.

Compared with GCCACACA, CACGCACA is lower in “PBM E-score” value: -0.00275 for the first, -0.0326 for the second.

Compared with CGGGGACG, AGGGAGCC is lower in “PBM E-score” value: -0.15 for the first, -0.301 for the second.

First: ACAATCAC
Second: CTGGCTAA
The “PBM E-score” value of the first is higher: -0.0265 for the first, -0.115 for the second.

Going from CAATGGTA to AGATATCC, the “PBM E-score” value rises from -0.0492 to 0.0863.

First: AAATGATT
Second: ATGTCAGA
The “PBM E-score” value of the first is higher: 0.316 for the first, -0.0803 for the second.

Going from CTACTGGA to TCCGTGAA, the “PBM E-score” value rises from -0.271 to 0.283.

Going from ACGATCGC to AGCGAACA, the “PBM E-score” value rises from 0.0633 to 0.146.

First: AGGGACAA
Second: CACTTGAG
The “PBM E-score” value of the first is higher: -0.105 for the first, -0.175 for the second.

Going from GTAAAGGA to ACCCCCTA, the “PBM E-score” value falls from 0.0974 to -0.41.

Compared with GACCAGAA, ACCAACCG is higher in “PBM E-score” value: -0.0843 for the first, 0.127 for the second.

Compared with GCGAGGCC, GCCGGGCC is higher in “PBM E-score” value: -0.266 for the first, 0.169 for the second.

Compared with ACGAATAA, GGGCCTTA is lower in “PBM E-score” value: 0.0316 for the first, -0.209 for the second.

Compared with GTTTCGAA, AGGTCTCG is lower in “PBM E-score” value: -0.00445 for the first, -0.144 for the second.

First: TCCTTGCA
Second: AGCCCCCA
The “PBM E-score” value of the first is higher: -0.182 for the first, -0.36 for the second.

Compared with GTACGAAC, GCAGAACA is lower in “PBM E-score” value: 0.288 for the first, -0.0566 for the second.

First: CACGAACA
Second: ATGTTTGA
The “PBM E-score” value of the first is higher: 0.187 for the first, 0.0399 for the second.

Compared with TCCTGGCA, CGCCGGGA is higher in “PBM E-score” value: -0.0813 for the first, 0.312 for the second.

First: GCGCTCCC
Second: CATGTATA
The “PBM E-score” value of the first is lower: -0.143 for the first, -0.00805 for the second.

Compared with ATAACGTA, ATGCTGTG is lower in “PBM E-score” value: 0.128 for the first, -0.0237 for the second.

Compared with TAAGAGCA, GCGAATCA is higher in “PBM E-score” value: -0.0223 for the first, -0.00378 for the second.

Compared with GCTTAGAC, ATGAGTGG is higher in “PBM E-score” value: -0.317 for the first, -0.229 for the second.

Compared with CCAAGGCC, CAATAAAG is higher in “PBM E-score” value: -0.136 for the first, 0.188 for the second.

First: ACGCGCAT
Second: CCCCTGGA
The “PBM E-score” value of the first is higher: -0.0398 for the first, -0.237 for the second.

First: CCCGACGA
Second: CCTAGTAG
The “PBM E-score” value of the first is higher: 0.0666 for the first, -0.103 for the second.

First: ATTGATAA
Second: CCTGGTAA
The “PBM E-score” value of the first is higher: 0.172 for the first, -0.0866 for the second.

Compared with ACCGAATA, CAAGACGG is lower in “PBM E-score” value: 0.173 for the first, -0.158 for the second.

Source: the supplement of paper PMC3334620
